Among the data in publication PMC7862700 are binding signal values, retold here.

By UniProt entry, the sequences of proteins in these tests, tags left out. Where a name states a change or a piece, a line headed by the entry shows the natural chain unless it says otherwise.
UniProt Q01892: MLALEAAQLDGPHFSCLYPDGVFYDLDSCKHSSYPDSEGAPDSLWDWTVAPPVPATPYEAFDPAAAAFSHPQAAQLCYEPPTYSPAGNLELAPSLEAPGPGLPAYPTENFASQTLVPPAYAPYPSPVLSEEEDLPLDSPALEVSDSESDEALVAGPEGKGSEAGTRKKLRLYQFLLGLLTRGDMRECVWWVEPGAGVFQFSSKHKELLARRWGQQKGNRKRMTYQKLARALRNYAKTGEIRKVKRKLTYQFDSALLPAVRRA
UniProt P41161: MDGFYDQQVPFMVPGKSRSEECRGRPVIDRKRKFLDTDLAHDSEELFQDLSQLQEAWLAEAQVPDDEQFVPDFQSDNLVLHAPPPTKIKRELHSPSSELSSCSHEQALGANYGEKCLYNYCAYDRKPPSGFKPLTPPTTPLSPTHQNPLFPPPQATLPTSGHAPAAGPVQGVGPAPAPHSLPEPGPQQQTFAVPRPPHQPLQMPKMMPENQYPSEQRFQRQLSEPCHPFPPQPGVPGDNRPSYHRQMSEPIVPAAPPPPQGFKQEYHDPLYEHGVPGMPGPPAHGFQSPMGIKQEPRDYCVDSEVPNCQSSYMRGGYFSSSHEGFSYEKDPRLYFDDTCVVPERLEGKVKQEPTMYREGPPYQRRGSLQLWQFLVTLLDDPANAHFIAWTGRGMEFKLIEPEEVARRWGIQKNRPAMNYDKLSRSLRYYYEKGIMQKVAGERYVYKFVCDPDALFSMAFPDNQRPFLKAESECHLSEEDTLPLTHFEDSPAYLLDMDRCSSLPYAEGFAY
UniProt Q99607: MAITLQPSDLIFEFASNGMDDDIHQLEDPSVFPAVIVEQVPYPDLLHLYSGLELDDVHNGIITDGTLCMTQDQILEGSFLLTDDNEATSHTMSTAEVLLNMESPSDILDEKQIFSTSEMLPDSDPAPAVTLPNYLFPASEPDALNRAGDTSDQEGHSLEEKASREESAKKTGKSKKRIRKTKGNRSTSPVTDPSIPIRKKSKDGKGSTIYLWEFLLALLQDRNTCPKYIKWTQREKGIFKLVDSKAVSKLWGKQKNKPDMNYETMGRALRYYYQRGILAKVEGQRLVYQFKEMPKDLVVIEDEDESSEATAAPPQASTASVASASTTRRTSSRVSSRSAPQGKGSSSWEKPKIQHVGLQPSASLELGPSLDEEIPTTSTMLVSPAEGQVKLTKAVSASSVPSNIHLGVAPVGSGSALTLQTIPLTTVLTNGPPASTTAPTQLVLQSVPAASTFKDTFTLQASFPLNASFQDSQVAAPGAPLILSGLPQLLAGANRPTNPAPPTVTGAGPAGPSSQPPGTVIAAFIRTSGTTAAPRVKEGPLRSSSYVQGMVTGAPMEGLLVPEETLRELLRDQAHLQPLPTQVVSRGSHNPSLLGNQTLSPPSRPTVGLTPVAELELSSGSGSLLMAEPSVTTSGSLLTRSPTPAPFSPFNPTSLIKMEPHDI

Only a part is listed here, and it is no random draw. At the low end of the ranking the order means little.

Test in all cases: DAPPL (digital affinity profiling via proximity ligation, sequencing)
Details in all cases: 10 mM Tris-HCl pH 7.5, 50 mM NaCl, 1 mM DTT, 4% glycerol, room temperature, 30 min; GST-TFs on glutathione beads, 16-mer random dsDNA library, 0.1% …; high values mean tight binding; double strand, one strand shown; scale: fold enrichment (6-mer frequency, TF over GST control)

Assay [1] addresses T1, FLI1 (UniProt Q01543).
T1 sequence: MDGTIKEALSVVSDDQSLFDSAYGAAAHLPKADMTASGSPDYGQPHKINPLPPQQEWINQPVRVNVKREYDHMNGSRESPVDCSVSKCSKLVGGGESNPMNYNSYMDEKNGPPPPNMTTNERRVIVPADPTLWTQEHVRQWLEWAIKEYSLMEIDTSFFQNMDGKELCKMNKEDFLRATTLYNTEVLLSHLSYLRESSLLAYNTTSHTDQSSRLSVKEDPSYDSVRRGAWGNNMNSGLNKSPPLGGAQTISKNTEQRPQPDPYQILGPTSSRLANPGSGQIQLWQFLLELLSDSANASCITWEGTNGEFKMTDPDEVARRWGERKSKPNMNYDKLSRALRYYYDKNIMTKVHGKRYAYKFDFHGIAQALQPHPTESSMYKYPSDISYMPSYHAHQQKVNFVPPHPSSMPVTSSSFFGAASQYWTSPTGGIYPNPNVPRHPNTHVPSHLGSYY

Assay [2] has as its target T2, EHF (UniProt Q9NZC4).
T2 sequence: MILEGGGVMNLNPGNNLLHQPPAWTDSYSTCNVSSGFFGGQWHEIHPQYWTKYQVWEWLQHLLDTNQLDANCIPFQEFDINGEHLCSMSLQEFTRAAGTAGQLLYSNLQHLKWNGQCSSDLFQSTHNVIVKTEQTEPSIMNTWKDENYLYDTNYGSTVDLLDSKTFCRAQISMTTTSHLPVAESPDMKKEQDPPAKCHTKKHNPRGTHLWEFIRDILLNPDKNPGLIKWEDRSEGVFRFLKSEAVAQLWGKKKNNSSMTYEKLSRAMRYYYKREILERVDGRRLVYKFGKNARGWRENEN

In assay [3] the target is SPIB (UniProt Q01892).
Assay [4] addresses ETV5 (UniProt P41161).
For assay [5], the target named is ELF4 (UniProt Q99607).
Assay [6] has as its target T3, ETV2 (UniProt O00321).
T3 sequence: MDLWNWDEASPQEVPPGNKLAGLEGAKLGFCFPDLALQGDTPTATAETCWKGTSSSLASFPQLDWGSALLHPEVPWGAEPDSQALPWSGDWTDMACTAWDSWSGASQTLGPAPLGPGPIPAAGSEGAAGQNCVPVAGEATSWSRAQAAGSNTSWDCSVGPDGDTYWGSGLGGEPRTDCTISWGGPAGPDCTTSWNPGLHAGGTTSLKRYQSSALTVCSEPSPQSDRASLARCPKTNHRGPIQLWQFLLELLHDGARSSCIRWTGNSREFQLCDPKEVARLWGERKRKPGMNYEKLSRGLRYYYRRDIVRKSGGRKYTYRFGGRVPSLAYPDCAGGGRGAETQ

In assay [7] the target is T4, ETV3L (UniProt Q6ZN32).
T4 sequence: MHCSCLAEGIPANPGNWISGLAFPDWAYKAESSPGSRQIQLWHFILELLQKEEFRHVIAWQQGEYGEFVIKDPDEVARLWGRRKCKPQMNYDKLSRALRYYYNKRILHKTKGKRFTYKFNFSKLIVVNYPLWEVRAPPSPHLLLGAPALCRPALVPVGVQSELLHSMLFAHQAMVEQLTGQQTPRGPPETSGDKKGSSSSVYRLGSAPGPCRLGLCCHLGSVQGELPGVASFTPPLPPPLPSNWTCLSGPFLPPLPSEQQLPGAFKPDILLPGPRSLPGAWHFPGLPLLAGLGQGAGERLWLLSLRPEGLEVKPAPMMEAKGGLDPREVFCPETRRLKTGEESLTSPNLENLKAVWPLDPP

As to GAGAAA, the binding signal in assay [1] was found to be 0.721; in assay [2], 0.717; in assay [3], 0.733; in assay [4], 0.758; in assay [5] it was 0.745; in assay [6], 0.685. This sequence had a binding signal in assay [7] of 0.72.

Regarding TCGAGG, the binding signal in assay [1] was determined as 0.851; in assay [2] it was 0.794; in assay [3] it was 0.773; in assay [4] it was 0.792; in assay [5], 0.788; in assay [6] it was 0.847. The binding signal in assay [7] was found to be 0.847.

Consider GAAAGG, for which the binding signal in assay [1] was found to be 0.995; in assay [2] it was 0.927; in assay [3], 0.866; in assay [4], 0.922; in assay [5] it was 0.949; in assay [6], 0.85. In assay [7], this sequence displayed a binding signal of 0.907.

For the sequence ACAGAA, the binding signal was 0.892 in assay [1]; 0.994 in assay [2]; 0.954 in assay [3]; 0.935 in assay [4]; 0.925 in assay [5]; 0.996 in assay [6]. For the same sequence, the binding signal in assay [7] was determined as 0.911.

With GCCATC, the binding signal is 0.903 in assay [1]; 0.957 in assay [2]; 0.964 in assay [3]; 0.946 in assay [4]; 0.968 in assay [5]; 0.959 in assay [6]. In assay [7], this sequence showed a binding signal of 1.03.

As to CAGAAA, the binding signal turned out to be 0.956 in assay [1]; 0.963 in assay [2]; 0.967 in assay [3]; 0.937 in assay [4]; 0.941 in assay [5]; 0.993 in assay [6]. In assay [7], the binding signal was 0.888.

For the sequence TGTTAG, the binding signal was 0.892 in assay [1]; 0.979 in assay [2]; 0.941 in assay [3]; 0.927 in assay [4]; 0.978 in assay [5]; 1.03 in assay [6]. For the same sequence, in assay [7], the binding signal worked out at 0.833.

Turning to AAAGTC, the binding signal in assay [1] is 0.977; in assay [2], 0.931; in assay [3] it was 0.936; in assay [4], 0.954; in assay [5], 0.893; in assay [6] it was 0.873. This sequence returned a binding signal in assay [7] of 0.928.

As to AGTTAT, the binding signal in assay [1] was found to be 0.967; in assay [2] it was 0.911; in assay [3] it was 0.882; in assay [4], 0.951; in assay [5], 0.826; in assay [6], 0.886. Also, in assay [7], the binding signal came out at 0.853.

On to GGATTA, for which the binding signal in assay [1] is 0.896; in assay [2] it was 0.822; in assay [3], 0.852; in assay [4], 0.861; in assay [5], 0.81; in assay [6], 0.896. For the same sequence, the binding signal in assay [7] worked out at 0.921.

Take CTGAGG: the binding signal in assay [1] stood at 0.807; in assay [2], 0.824; in assay [3], 0.878; in assay [4], 0.818; in assay [5], 0.803; in assay [6], 0.733. For the same sequence, in assay [7], the binding signal was 0.865.

For GTCAAA, the binding signal in assay [1] was 0.92; in assay [2], 0.891; in assay [3], 0.922; in assay [4] it was 0.922; in assay [5] it was 0.951; in assay [6], 0.948. Also, in assay [7], the binding signal came out at 0.922.

On to GAAAGC, for which the binding signal in assay [1] worked out at 0.873; in assay [2] it was 0.818; in assay [3], 0.966; in assay [4], 0.856; in assay [5] it was 0.933; in assay [6] it was 0.885. This sequence displayed a binding signal in assay [7] of 0.891.

AGGATA: the binding signal worked out at 0.996 in assay [1]; 0.998 in assay [2]; 0.971 in assay [3]; 0.984 in assay [4]; 0.916 in assay [5]; 0.97 in assay [6]. The sequence also gave a binding signal in assay [7] of 1.

Take AGGCAC: the binding signal in assay [1] amounted to 0.855; in assay [2], 0.853; in assay [3] it was 0.949; in assay [4] it was 0.884; in assay [5] it was 0.928; in assay [6] it was 0.876. In assay [7], the binding signal was found to be 0.872.

Turning to AGAGAT, the binding signal in assay [1] came out at 0.874; in assay [2], 0.916; in assay [3], 0.813; in assay [4], 0.909; in assay [5], 0.89; in assay [6] it was 0.854. Also, the binding signal in assay [7] stood at 0.946.

Consider GCAAGC, for which the binding signal in assay [1] was 0.967; in assay [2], 0.862; in assay [3], 0.94; in assay [4], 0.88; in assay [5] it was 0.938; in assay [6], 0.889. This sequence also gave a binding signal in assay [7] of 0.905.

Regarding CTGGCG, the binding signal in assay [1] is 0.905; in assay [2], 0.869; in assay [3] it was 0.714; in assay [4] it was 0.728; in assay [5], 0.866; in assay [6], 0.82. The sequence further showed a binding signal in assay [7] of 0.824.

In the case of CTAGGG, the binding signal worked out at 0.867 in assay [1]; 0.933 in assay [2]; 0.809 in assay [3]; 0.82 in assay [4]; 0.929 in assay [5]; 0.942 in assay [6]. The sequence further came in with a binding signal in assay [7] of 0.961.

Consider TCCAGA, for which the binding signal stood at 0.855 in assay [1]; 0.881 in assay [2]; 0.844 in assay [3]; 0.872 in assay [4]; 0.958 in assay [5]; 0.865 in assay [6]. The sequence also returned a binding signal in assay [7] of 0.913.

Consider TAGTCA, for which the binding signal was 0.867 in assay [1]; 0.875 in assay [2]; 0.815 in assay [3]; 0.868 in assay [4]; 0.904 in assay [5]; 0.84 in assay [6]. The sequence also showed a binding signal in assay [7] of 0.906.

For the sequence ACAGTT, the binding signal in assay [1] is 0.852; in assay [2] it was 0.836; in assay [3] it was 0.841; in assay [4], 0.887; in assay [5], 0.837; in assay [6], 0.812. For the same sequence, the binding signal in assay [7] turned out to be 0.858.

On to TAAGGG, for which the binding signal in assay [1] was determined as 1.01; in assay [2], 0.944; in assay [3] it was 0.902; in assay [4], 0.967; in assay [5], 0.925; in assay [6] it was 0.953. Further, the binding signal in assay [7] came out at 0.916.
